Experimental data reported in the supplement of paper PMC8728848.
The list shows a part of the results.

Tests used:
Test in all cases: glycan array binding signal (z-score within array); higher = stronger binding
Settings in all cases: glycan notation: IUPAC condensed, linker removed
Neu5Ac(a2-3)GalNAc = target: Neu5Ac(a2-3)GalNAc
In short: (§1)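 Columns mapping to the same glycan were averaged after glycan names were converted to IUPAC-condensed notation. The data come from 3228 arrays in the Consortium for Functional Glycomics database, limited to those with an available protein sequence. Binding is reported as a within-array Z-score averaged across arrays of one protein sequence and across linkers.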

[1] = target: Neu5Ac(a2-3)GalNAc(b1-4)GlcNAc
In short: as §1

[2] = target: Neu5Ac(a2-3)[GalNAc(b1-4)]Gal(b1-4)Glc
In short: as §1

[3] = target: Neu5Ac(a2-3)[GalNAc(b1-4)]Gal(b1-4)GlcNAc
In short: as §1

[4] = target: Neu5Ac(a2-3)[GalNAc(b1-4)]Gal(b1-4)GlcNAc(b1-3)GalNAc
In short: as §1

[5] = target: Neu5Ac(a2-3)[Neu5Ac(a2-6)]GalNAc
In short: as §1

Neu5Ac(a2-6)Gal = target: Neu5Ac(a2-6)Gal
In short: as §1

[6] = target: Neu5Ac(a2-6)Gal(b1-3)GlcNAc(b1-3)[Gal(b1-4)GlcNAc(b1-6)]Gal(b1-4)Glc
In short: as §1

Neu5Ac(a2-6)Gal(b1-4)Glc = target: Neu5Ac(a2-6)Gal(b1-4)Glc
In short: as §1

[7] = target: Neu5Ac(a2-6)Gal(b1-4)GlcNAc
In short: as §1

[8] = target: Neu5Ac(a2-6)Gal(b1-4)GlcNAc(b1-2)Man
In short: as §1

[9] = target: Neu5Ac(a2-6)Gal(b1-4)GlcNAc(b1-2)Man(a1-3)Man(b1-4)GlcNAc(b1-4)GlcNAc
In short: as §1

[10] = target: Neu5Ac(a2-6)Gal(b1-4)GlcNAc(b1-2)Man(a1-3)[Gal(b1-4)GlcNAc(b1-2)Man(a1-6)]Man(b1-4)GlcNAc(b1-4)GlcNAc
In short: as §1

[11] = target: Neu5Ac(a2-6)Gal(b1-4)GlcNAc(b1-2)Man(a1-3)[GlcNAc(b1-2)Man(a1-6)]Man(b1-4)GlcNAc(b1-4)GlcNAc
In short: as §1

[12] = target: Neu5Ac(a2-6)Gal(b1-4)GlcNAc(b1-2)Man(a1-3)[GlcNAc(b1-4)][Neu5Ac(a2-6)Gal(b1-4)GlcNAc(b1-2)Man(a1-6)]Man(b1-4)GlcNAc(b1-4)GlcNAc
In short: as §1

[13] = target: Neu5Ac(a2-6)Gal(b1-4)GlcNAc(b1-2)Man(a1-3)[Man(a1-6)]Man(b1-4)GlcNAc(b1-4)GlcNAc
In short: as §1

[14] = target: Neu5Ac(a2-6)Gal(b1-4)GlcNAc(b1-2)Man(a1-3)[Neu5Ac(a2-3)Gal(b1-4)GlcNAc(b1-2)Man(a1-6)]Man(b1-4)GlcNAc(b1-4)GlcNAc
In short: as §1

[15] = target: Neu5Ac(a2-6)Gal(b1-4)GlcNAc(b1-2)Man(a1-3)[Neu5Ac(a2-6)Gal(b1-4)GlcNAc(b1-2)Man(a1-6)]Man(b1-4)GlcNAc(b1-4)GlcNAc
In short: as §1

[16] = target: Neu5Ac(a2-6)Gal(b1-4)GlcNAc(b1-2)Man(a1-3)[Neu5Ac(a2-6)Gal(b1-4)GlcNAc(b1-2)Man(a1-6)]Man(b1-4)GlcNAc(b1-4)[Fuc(a1-6)]GlcNAc
In short: as §1

[17] = target: Neu5Ac(a2-6)Gal(b1-4)GlcNAc(b1-2)Man(a1-6)Man(b1-4)GlcNAc(b1-4)GlcNAc
In short: as §1

[18] = target: Neu5Ac(a2-6)Gal(b1-4)GlcNAc(b1-2)Man(a1-6)[Gal(b1-4)GlcNAc(b1-2)Man(a1-3)]Man(b1-4)GlcNAc(b1-4)GlcNAc
In short: as §1

[19] = target: Neu5Ac(a2-6)Gal(b1-4)GlcNAc(b1-2)Man(a1-6)[GlcNAc(b1-2)Man(a1-3)]Man(b1-4)GlcNAc(b1-4)GlcNAc
In short: as §1

[20] = target: Neu5Ac(a2-6)Gal(b1-4)GlcNAc(b1-2)Man(a1-6)[Man(a1-3)]Man(b1-4)GlcNAc(b1-4)GlcNAc
In short: as §1

[21] = target: Neu5Ac(a2-6)Gal(b1-4)GlcNAc(b1-2)[Neu5Ac(a2-6)Gal(b1-4)GlcNAc(b1-4)]Man(a1-3)[GlcNAc(b1-4)][Neu5Ac(a2-6)Gal(b1-4)GlcNAc(b1-2)[Neu5Ac(a2-6)Gal(b1-4)GlcNAc(b1-6)]Man(a1-6)]Man(b1-4)GlcNAc(b1-4)GlcNAc
In short: as §1

[22] = target: Neu5Ac(a2-6)Gal(b1-4)GlcNAc(b1-2)[Neu5Ac(a2-6)Gal(b1-4)GlcNAc(b1-4)]Man(a1-3)[GlcNAc(b1-4)][Neu5Ac(a2-6)Gal(b1-4)GlcNAc(b1-4)Man(a1-6)]Man(b1-4)GlcNAc(b1-4)GlcNAc
In short: as §1

[23] = target: Neu5Ac(a2-6)Gal(b1-4)GlcNAc(b1-2)[Neu5Ac(a2-6)Gal(b1-4)GlcNAc(b1-6)]Man(a1-6)[Neu5Ac(a2-6)Gal(b1-4)GlcNAc(b1-2)Man(a1-3)][GlcNAc(b1-4)]Man(b1-4)GlcNAc(b1-4)GlcNAc
In short: as §1

[24] = target: Neu5Ac(a2-6)Gal(b1-4)GlcNAc(b1-3)Gal(b1-3)GlcNAc
In short: as §1

[25] = target: Neu5Ac(a2-6)Gal(b1-4)GlcNAc(b1-3)Gal(b1-4)GlcNAc
In short: as §1

[26] = target: Neu5Ac(a2-6)Gal(b1-4)GlcNAc(b1-3)Gal(b1-4)GlcNAc(b1-2)Man(a1-3)[Neu5Ac(a2-6)Gal(b1-4)GlcNAc(b1-3)Gal(b1-4)GlcNAc(b1-2)Man(a1-6)]GalNAc
In short: as §1

[27] = target: Neu5Ac(a2-6)Gal(b1-4)GlcNAc(b1-3)Gal(b1-4)GlcNAc(b1-3)Gal(b1-4)GlcNAc
In short: as §1

[28] = target: Neu5Ac(a2-6)Gal(b1-4)GlcNAc(b1-3)Gal(b1-4)GlcNAc(b1-3)Gal(b1-4)GlcNAc(b1-2)Man(a1-3)[Neu5Ac(a2-6)Gal(b1-4)GlcNAc(b1-3)Gal(b1-4)GlcNAc(b1-3)Gal(b1-4)GlcNAc(b1-2)Man(a1-6)]GalNAc
In short: as §1

[29] = target: Neu5Ac(a2-6)Gal(b1-4)GlcNAc(b1-3)Gal(b1-4)GlcNAc(b1-3)GalNAc
In short: as §1

[30] = target: Neu5Ac(a2-6)Gal(b1-4)GlcNAc(b1-3)Gal(b1-4)GlcNAc(b1-3)[Neu5Ac(a2-6)Gal(b1-4)GlcNAc(b1-3)Gal(b1-4)GlcNAc(b1-6)]GalNAc
In short: as §1

[31] = target: Neu5Ac(a2-6)Gal(b1-4)GlcNAc(b1-3)Gal(b1-4)GlcNAc(b1-6)[Gal(b1-3)]GalNAc
In short: as §1

[32] = target: Neu5Ac(a2-6)Gal(b1-4)GlcNAc(b1-3)Gal(b1-4)[Fuc(a1-3)]GlcNAc(b1-3)Gal(b1-4)[Fuc(a1-3)]GlcNAc
In short: as §1

[33] = target: Neu5Ac(a2-6)Gal(b1-4)GlcNAc(b1-3)GalNAc
In short: as §1

[34] = target: Neu5Ac(a2-6)Gal(b1-4)GlcNAc(b1-3)[Neu5Ac(a2-6)Gal(b1-4)GlcNAc(b1-6)]GalNAc
In short: as §1

B1: AntigenI/IIC123 (Streptococcus mutans), C9E3B4 (protein)
chain: MASMTGGQQMGRIHFHYFKLAVQPQVNKEIRNNNDINIDRTLVAKQSVVKFQLKTADLPAGRDETTSFVLVDPLPSGYQFNPEATKAASPGFDVTYDNATNTVTFKATAATLATFNADLTKSVATIYPTVVGQVLNDGATYKNNFTLTVNDAYGIKSNVVRVTTPGKPNDPDNPNNNYIKPTKVNKNENGVVIDGKTVLAGSTNYYELTWDLDQYKNDRSSADTIQKGFYYVDDYPEEALELRQDLVKITDANGNEVTGVSVDNYTNLEAAPQEIRDVLSKAGIRPKGAFQIFRADNPREFYDTYVKTGIDLKIVSPMVVKKQMGQTGGSYENQAYQIDFGNGYASNIIINNVPKINPKKDVTLTLDPADTNNVDGQTIPLNTVFNYRLIGGIIPADHSEELFEYNFYDDYDQTGDHYTGQYKVFAKVDITFKDGSIIKSGAELTQYTTAEVDTAKGAITIKFKEAFLRSVSIDSAFQAESYIQMKRIAVGTFENTYINTVNGVTYSSLEHHHHHH
glycan array binding signal (z-score) (Neu5Ac(a2-3)GalNAc): -0.706
glycan array binding signal (z-score) [1]: 0.443
glycan array binding signal (z-score) [2]: -0.218
glycan array binding signal (z-score) [3]: 0.527
glycan array binding signal (z-score) [4]: 1.72
glycan array binding signal (z-score) [5]: -0.734
glycan array binding signal (z-score) (Neu5Ac(a2-6)Gal): 4.55
glycan array binding signal (z-score) [6]: -0.008
glycan array binding signal (z-score) (Neu5Ac(a2-6)Gal(b1-4)Glc): -0.07
glycan array binding signal (z-score) [7]: -0.728
glycan array binding signal (z-score) [8]: -1.06
glycan array binding signal (z-score) [9]: -0.226
glycan array binding signal (z-score) [10]: -0.482
glycan array binding signal (z-score) [11]: 1.46
glycan array binding signal (z-score) [12]: -0.868
glycan array binding signal (z-score) [13]: -0.382
glycan array binding signal (z-score) [14]: 2.12
glycan array binding signal (z-score) [15]: -0.103
glycan array binding signal (z-score) [16]: -0.315
glycan array binding signal (z-score) [17]: -0.796
glycan array binding signal (z-score) [18]: -0.477
glycan array binding signal (z-score) [19]: -0.067
glycan array binding signal (z-score) [20]: -0.59
glycan array binding signal (z-score) [21]: 1.59
glycan array binding signal (z-score) [22]: -0.572
glycan array binding signal (z-score) [23]: -0.081
glycan array binding signal (z-score) [24]: -0.001
glycan array binding signal (z-score) [25]: 0.512
glycan array binding signal (z-score) [26]: 0.717
glycan array binding signal (z-score) [27]: -1.11
glycan array binding signal (z-score) [28]: 0.175
glycan array binding signal (z-score) [29]: -0.497
glycan array binding signal (z-score) [30]: -0.123
glycan array binding signal (z-score) [31]: 1.06
glycan array binding signal (z-score) [32]: -0.288
glycan array binding signal (z-score) [33]: 0.363
glycan array binding signal (z-score) [34]: -0.343
